# Test results as given in the supplement of paper PMC8728848.
# The list shows a part of the results.
# B1: OS9-MRH (Homo sapiens), Q13438 (protein)
# chain: IPELLSPMRDAPCLLKTKDWWTYEFCYGRHIQQYHMEDSEIKGEVLYLGYYQSAFDWDDETAKASKQHRLKRYHSQTYGNGSKCDLNGRPREAEVRFLCDEGAGISGDYIDRVDEPLSCSYVLTIRTPRLCPHPLLRPPPSAAPQAI
# Legend:
# Test in all cases: glycan array binding signal (z-score within array); higher = stronger binding
# Conditions in all cases: glycan notation: IUPAC condensed, linker removed
# Gal(a1-3)Gal(b1-4)GlcNAc = target: Gal(a1-3)Gal(b1-4)GlcNAc
# Outline: (§1)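 The binding signal is a Z-score computed within each array and averaged over linkers. Arrays of the same protein sequence at different concentrations or buffers were also averaged together. Data originate from 3228 arrays in the Consortium for Functional Glycomics database, kept only where the protein sequence was available.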
# [1] = target: Gal(a1-3)Gal(b1-4)GlcNAc(b1-2)Man
# Outline: as §1
# [2] = target: Gal(a1-3)Gal(b1-4)GlcNAc(b1-2)Man(a1-3)[Gal(a1-3)Gal(b1-4)GlcNAc(b1-2)Man(a1-6)]Man(b1-4)GlcNAc(b1-4)GlcNAc
# Outline: as §1
# [3] = target: Gal(a1-3)Gal(b1-4)GlcNAc(b1-3)GalNAc
# Outline: as §1
# [4] = target: Gal(a1-3)Gal(b1-4)GlcNAc(b1-6)GalNAc
# Outline: as §1
# [5] = target: Gal(a1-3)Gal(b1-4)[Fuc(a1-3)]GlcNAc
# Outline: as §1
# [6] = target: Gal(a1-3)Gal(b1-4)[Fuc(a1-3)]GlcNAc(b1-2)Man(a1-3)[Gal(a1-3)Gal(b1-4)[Fuc(a1-3)]GlcNAc(b1-2)Man(a1-6)]Man(b1-4)GlcNAc(b1-4)GlcNAc
# Outline: as §1
# Gal(a1-3)GalNAc = target: Gal(a1-3)GalNAc
# Outline: as §1
# [7] = target: Gal(a1-3)[Gal(a1-4)]Gal(b1-4)GlcNAc
# Outline: as §1
# [8] = target: Gal(a1-4)Gal(b1-3)GlcNAc(b1-2)Man(a1-3)[Gal(a1-4)Gal(b1-3)GlcNAc(b1-2)Man(a1-6)]Man(b1-4)GlcNAc(b1-4)GlcNAc
# Outline: as §1
# Gal(a1-4)Gal(b1-4)Glc = target: Gal(a1-4)Gal(b1-4)Glc
# Outline: as §1
# Gal(a1-4)Gal(b1-4)GlcNAc = target: Gal(a1-4)Gal(b1-4)GlcNAc
# Outline: as §1
# [9] = target: Gal(a1-4)Gal(b1-4)GlcNAc(b1-2)Man(a1-3)[Gal(a1-4)Gal(b1-4)GlcNAc(b1-2)Man(a1-6)]Man(b1-4)GlcNAc(b1-4)GlcNAc
# Outline: as §1
# [10] = target: Gal(a1-4)Gal(b1-4)GlcNAc(b1-3)Gal(b1-4)Glc
# Outline: as §1
# Gal(a1-4)GlcNAc = target: Gal(a1-4)GlcNAc
# Outline: as §1
# Gal(a1-6)Glc = target: Gal(a1-6)Glc
# Outline: as §1
# Gal(b1-2)Gal = target: Gal(b1-2)Gal
# Outline: as §1
# Gal(b1-3)Gal = target: Gal(b1-3)Gal
# Outline: as §1
# Gal(b1-3)Gal(b1-4)GlcNAc = target: Gal(b1-3)Gal(b1-4)GlcNAc
# Outline: as §1
# Gal(b1-3)GalNAc = target: Gal(b1-3)GalNAc
# Outline: as §1
# [11] = target: Gal(b1-3)GalNAc(a1-3)[Fuc(a1-2)]Gal(b1-4)Glc
# Outline: as §1
# [12] = target: Gal(b1-3)GalNAc(a1-3)[Fuc(a1-2)]Gal(b1-4)GlcNAc
# Outline: as §1
# Gal(b1-3)GalNAc(b1-3)Gal = target: Gal(b1-3)GalNAc(b1-3)Gal
# Outline: as §1
# [13] = target: Gal(b1-3)GalNAc(b1-3)Gal(a1-4)Gal(b1-4)Glc
# Outline: as §1
# [14] = target: Gal(b1-3)GalNAc(b1-4)Gal(b1-4)Glc
# Outline: as §1
# [15] = target: Gal(b1-3)GalNAc(b1-4)[Neu5Ac(a2-3)]Gal(b1-4)Glc
# Outline: as §1
# Gal(b1-3)GlcNAc = target: Gal(b1-3)GlcNAc
# Outline: as §1
# [16] = target: Gal(b1-3)GlcNAc(a1-3)Gal(b1-4)GlcNAc
# Outline: as §1
# [17] = target: Gal(b1-3)GlcNAc(a1-6)Gal(b1-4)GlcNAc
# Outline: as §1
# Gal(b1-3)GlcNAc(b1-2)Man = target: Gal(b1-3)GlcNAc(b1-2)Man
# Outline: as §1
# [18] = target: Gal(b1-3)GlcNAc(b1-2)Man(a1-3)[Gal(b1-3)GlcNAc(b1-2)Man(a1-6)]Man(b1-4)GlcNAc(b1-4)GlcNAc
# Outline: as §1
# [19] = target: Gal(b1-3)GlcNAc(b1-2)Man(a1-3)[Gal(b1-3)GlcNAc(b1-2)Man(a1-6)]Man(b1-4)GlcNAc(b1-4)[Fuc(a1-6)]GlcNAc
# Outline: as §1
# [20] = target: Gal(b1-3)GlcNAc(b1-2)Man(a1-3)[GlcNAc(b1-4)][Gal(b1-3)GlcNAc(b1-2)Man(a1-6)]Man(b1-4)GlcNAc(b1-4)GlcNAc
# Outline: as §1
# [21] = target: Gal(b1-3)GlcNAc(b1-2)[Gal(b1-3)GlcNAc(b1-6)]Man(a1-6)[Gal(b1-3)GlcNAc(b1-2)Man(a1-3)]Man(b1-4)GlcNAc(b1-4)GlcNAc
# Outline: as §1
# [22] = target: Gal(b1-3)GlcNAc(b1-3)Gal(b1-3)GlcNAc
# Outline: as §1
# [23] = target: Gal(b1-3)GlcNAc(b1-3)Gal(b1-4)Glc
# Outline: as §1
# [24] = target: Gal(b1-3)GlcNAc(b1-3)Gal(b1-4)GlcNAc
# Outline: as §1
# [25] = target: Gal(b1-3)GlcNAc(b1-3)Gal(b1-4)GlcNAc(b1-2)Man(a1-3)[Gal(b1-3)GlcNAc(b1-3)Gal(b1-4)GlcNAc(b1-2)Man(a1-6)]Man(b1-4)GlcNAc(b1-4)GlcNAc
# Outline: as §1
# [26] = target: Gal(b1-3)GlcNAc(b1-3)Gal(b1-4)GlcNAc(b1-2)[Gal(b1-3)GlcNAc(b1-3)Gal(b1-4)GlcNAc(b1-6)]Man(a1-6)[Gal(b1-3)GlcNAc(b1-3)Gal(b1-4)GlcNAc(b1-2)Man(a1-3)]Man(b1-4)GlcNAc(b1-4)[Fuc(a1-6)]GlcNAc
# Outline: as §1
# [27] = target: Gal(b1-3)GlcNAc(b1-3)Gal(b1-4)GlcNAc(b1-3)Gal(b1-4)GlcNAc(b1-2)[Gal(b1-3)GlcNAc(b1-3)Gal(b1-4)GlcNAc(b1-3)Gal(b1-4)GlcNAc(b1-6)]Man(a1-6)[Gal(b1-3)GlcNAc(b1-3)Gal(b1-4)GlcNAc(b1-3)Gal(b1-4)GlcNAc(b1-2)Man(a1-3)]Man(b1-4)GlcNAc(b1-4)[Fuc(a1-6)]GlcNAc
# Outline: as §1
# [28] = target: Gal(b1-3)GlcNAc(b1-3)Gal(b1-4)GlcNAc(b1-6)[Gal(b1-3)GlcNAc(b1-3)]Gal(b1-4)Glc
# Outline: as §1
# [29] = target: Gal(b1-3)GlcNAc(b1-3)Gal(b1-4)[Fuc(a1-3)]GlcNAc
# Outline: as §1
# [30] = target: Gal(b1-3)GlcNAc(b1-3)Gal(b1-4)[Fuc(a1-3)]GlcNAc(b1-6)[Gal(b1-3)GlcNAc(b1-3)]Gal(b1-4)Glc
# Outline: as §1
# [31] = target: Gal(b1-3)GlcNAc(b1-3)GalNAc
# Outline: as §1
# [32] = target: Gal(b1-3)GlcNAc(b1-6)Gal(b1-4)GlcNAc
# Outline: as §1
binder,measurement,setting,value
B1,glycan array binding signal (z-score),Gal(a1-3)Gal(b1-4)GlcNAc,-0.284
same,glycan array binding signal (z-score),[1],0.419
same,glycan array binding signal (z-score),[2],-0.193
same,glycan array binding signal (z-score),[3],-0.842
same,glycan array binding signal (z-score),[4],0.493
same,glycan array binding signal (z-score),[5],0.407
same,glycan array binding signal (z-score),[6],1.16
same,glycan array binding signal (z-score),Gal(a1-3)GalNAc,-0.391
same,glycan array binding signal (z-score),[7],0.456
same,glycan array binding signal (z-score),[8],-0.307
same,glycan array binding signal (z-score),Gal(a1-4)Gal(b1-4)Glc,-0.287
same,glycan array binding signal (z-score),Gal(a1-4)Gal(b1-4)GlcNAc,0.847
same,glycan array binding signal (z-score),[9],-0.731
same,glycan array binding signal (z-score),[10],-0.569
same,glycan array binding signal (z-score),Gal(a1-4)GlcNAc,1.18
same,glycan array binding signal (z-score),Gal(a1-6)Glc,0.346
same,glycan array binding signal (z-score),Gal(b1-2)Gal,1.81
same,glycan array binding signal (z-score),Gal(b1-3)Gal,2.14
same,glycan array binding signal (z-score),Gal(b1-3)Gal(b1-4)GlcNAc,-2.16
same,glycan array binding signal (z-score),Gal(b1-3)GalNAc,-0.099
same,glycan array binding signal (z-score),[11],-1.52
same,glycan array binding signal (z-score),[12],0.755
same,glycan array binding signal (z-score),Gal(b1-3)GalNAc(b1-3)Gal,-0.52
same,glycan array binding signal (z-score),[13],2.47
same,glycan array binding signal (z-score),[14],-0.713
same,glycan array binding signal (z-score),[15],-0.354
same,glycan array binding signal (z-score),Gal(b1-3)GlcNAc,0.27
same,glycan array binding signal (z-score),[16],0.733
same,glycan array binding signal (z-score),[17],-0.372
same,glycan array binding signal (z-score),Gal(b1-3)GlcNAc(b1-2)Man,1.85
same,glycan array binding signal (z-score),[18],-0.023
same,glycan array binding signal (z-score),[19],-0.669
same,glycan array binding signal (z-score),[20],2.02
same,glycan array binding signal (z-score),[21],0.934
same,glycan array binding signal (z-score),[22],0.038
same,glycan array binding signal (z-score),[23],-0.054
same,glycan array binding signal (z-score),[24],-0.137
same,glycan array binding signal (z-score),[25],2.4
same,glycan array binding signal (z-score),[26],0.95
same,glycan array binding signal (z-score),[27],-0.298
same,glycan array binding signal (z-score),[28],-0.826
same,glycan array binding signal (z-score),[29],0.956
same,glycan array binding signal (z-score),[30],0.099
same,glycan array binding signal (z-score),[31],-0.581
same,glycan array binding signal (z-score),[32],-1.35

# Another view of some results above.
binder | measurement | setting | value
B1 | glycan array binding signal (z-score) | [28] | -0.826
same | glycan array binding signal (z-score) | [31] | -0.581
